Results from publication PMC7819943, “Rice protein-binding microarrays: a tool to detect cis-acting elements near promoter regions in rice”.
This is one part of the list.

Sequences of proteins named here, by UniProt entry; tags and fusion partners are left off.
UniProt Q0JBA9, entry or part of it: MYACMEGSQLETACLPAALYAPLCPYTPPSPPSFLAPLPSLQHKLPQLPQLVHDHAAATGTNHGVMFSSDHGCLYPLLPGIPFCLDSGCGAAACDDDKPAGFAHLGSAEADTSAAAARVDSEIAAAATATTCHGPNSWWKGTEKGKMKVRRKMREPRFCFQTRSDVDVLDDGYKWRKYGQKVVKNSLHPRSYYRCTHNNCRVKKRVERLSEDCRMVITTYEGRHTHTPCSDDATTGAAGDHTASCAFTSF

The sequences below were run against OsWRKY34 (Oryza sativa, UniProt Q0JBA9 1-250) (assay: protein-binding microarray (RPBM); PBS, 2% BSA, 51.3 ng/ul salmon testes DNA, 50 uM zinc acetate, 200 nM TF, 25 C, 1 h; high values mean tight binding). Settings: protein: recombinant; tags: N-terminal polyhistidine and DsRed monomer fusion (pET32a); label: CyDye5-dUTP incorporated in the synthesized complementary strand; 3' TTTTT single-stranded linker to array surface; dsDNA, one strand shown.
Summary of the method: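 Binding signal is reported as fluorescence intensity per feature (arbitrary units) from an Axon 4000B scanner. Incubation used 200 nM of each Ni–NTA-purified, N-terminally polyhistidine- and DsRed-fused transcription factor from E. coli BL21-CodonPlus on a double-stranded custom Agilent array for 1 h at 25 °C, with 50 µM zinc acetate in the buffer, followed by washing.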

| Sequence | binding signal |
| --- | --- |
| TACGCCTGATTGGATCCCCACCCCTATCTCCACTGACTGTCGGAGTCACCTAGTGCAG | 10400 fluorescence intensity (a.u.) |
| TTTTGTGTGTGTCCTGATACTGGGAATCTGCAATCTACATCGGAGTCACCTAGTGCAG | 11200 fluorescence intensity (a.u.) |
| TTTCATTCTCTTGTTCCTCATGTCTCATGATGCACCTTGCCGGAGTCACCTAGTGCAG | 10900 fluorescence intensity (a.u.) |
| TAGTATTGCTGTATTGCACGTTGAACAGACAATCTTTCCTCGGAGTCACCTAGTGCAG | 8900 fluorescence intensity (a.u.) |
| AAACCACCTCAACCACAATTTCTCATGGTCAGTTTCACTACGGAGTCACCTAGTGCAG | 9300 fluorescence intensity (a.u.) |
| GGGCCCACGTAGCTCGACCCCACCTGTCACTCGCTCACACCGGAGTCACCTAGTGCAG | 8310 fluorescence intensity (a.u.) |
| ACGGTCAGCGAATTCCGGAAGCCCATTACATCACACCCATCGGAGTCACCTAGTGCAG | 8160 fluorescence intensity (a.u.) |
| TATTTGGGCTGGACCAAGAACTACCGTTGACTTTGGTTGGCGGAGTCACCTAGTGCAG | 16300 fluorescence intensity (a.u.) |
| TCGTTCCTCTTCAGCACTACCACCATTTTGGACAAGGCGCCGGAGTCACCTAGTGCAG | 8310 fluorescence intensity (a.u.) |
| AGTGGCAGTGTTTGACGGGATTTCTAAAAATTATATATATCGGAGTCACCTAGTGCAG | 8290 fluorescence intensity (a.u.) |
| CACAGTGATCCTCTATTATGCTTTGCTGGTGTGCTTTTGACGGAGTCACCTAGTGCAG | 9310 fluorescence intensity (a.u.) |
| CGTCGCGGCGTGCATCTCCTCACCAGCTCCACACCTCGCTCGGAGTCACCTAGTGCAG | 11500 fluorescence intensity (a.u.) |
| GATTGCACTTATTTTGAGACGGGTGTAGTATTATATTTTCCGGAGTCACCTAGTGCAG | 10100 fluorescence intensity (a.u.) |
| TATATAACTCCTTCACTTTGGACTCGTAAAGCTCACACAACGGAGTCACCTAGTGCAG | 8540 fluorescence intensity (a.u.) |
| CAAGTTCCTGTAAATTCAGAACAAGTCAACGCCGGTCAACCGGAGTCACCTAGTGCAG | 8520 fluorescence intensity (a.u.) |
| GTTTGCTCATCTCATTCGTCGCGACCCCTCGCCTCTGTATCGGAGTCACCTAGTGCAG | 9560 fluorescence intensity (a.u.) |
| ATTATTTGTCTAAATTTAAATTCTATACCGTGACAAATATCGGAGTCACCTAGTGCAG | 8080 fluorescence intensity (a.u.) |
| TCATCCACTTTGCTACGAGTTTGCTTTTTCTCTAATTCAACGGAGTCACCTAGTGCAG | 11200 fluorescence intensity (a.u.) |
| GACATACTCTGCTAATATGCTTCTTGCTCCATTTACTTTACGGAGTCACCTAGTGCAG | 8520 fluorescence intensity (a.u.) |
| ACCGGACATTCCACTCCACTGCAACACCCTTCTCTTGCTCCGGAGTCACCTAGTGCAG | 10600 fluorescence intensity (a.u.) |
| GCATCCTAACATCCCGCCGAAGGACCTTTTCAACCTCATCCGGAGTCACCTAGTGCAG | 8300 fluorescence intensity (a.u.) |

| Sequence | binding signal |
| --- | --- |
| TCGTGTTCTCTCTCTACCATTCCATCTTCTAGCACAACAGCGGAGTCACCTAGTGCAG | 13500 fluorescence intensity (a.u.) |
| GATAACATGTTGTAGTCTTCCAGGGGTGGGTGTTAGCTGTCGGAGTCACCTAGTGCAG | 16700 fluorescence intensity (a.u.) |
| CCCCTGTGTGTTCTTCTTGCTGGCTTTCTCGTCCTTGTCTCGGAGTCACCTAGTGCAG | 11600 fluorescence intensity (a.u.) |
| GCGTGCCCTTCACATGCATGCTCGTCTCTCGGTCTCGTTCCGGAGTCACCTAGTGCAG | 11600 fluorescence intensity (a.u.) |
| TAACAGCGGGGAGAATGGGCAAAAGTGGGAGCGGCAGCGACGGAGTCACCTAGTGCAG | 9040 fluorescence intensity (a.u.) |
| TTGGGAGTTCTGTACACAGCAACCAAAATGCATTTTCATACGGAGTCACCTAGTGCAG | 8490 fluorescence intensity (a.u.) |
| TTACCTACGTGGAGCATCATTTTTAACCGAGGCAAATTTTCGGAGTCACCTAGTGCAG | 10300 fluorescence intensity (a.u.) |
| CTCATCGCGCTACTGATCCGGTGGTTCCCGTCCGAGTGCTCGGAGTCACCTAGTGCAG | 8640 fluorescence intensity (a.u.) |
| CTGTGGCATGATATGGTAGGTGGTAAAACGTTCTTTTCCACGGAGTCACCTAGTGCAG | 10500 fluorescence intensity (a.u.) |
| ATCTCCCTTAGCTAGCTACTCGATCTTAACAGTGAGCTTCCGGAGTCACCTAGTGCAG | 8640 fluorescence intensity (a.u.) |
| TAGTTGGGTGCGGGCGTTGTTTAATTGTTTGAGTGAAAAACGGAGTCACCTAGTGCAG | 9260 fluorescence intensity (a.u.) |
| CGACAGACTAACCATCGCCAGCGTCAACAACGTCTTGACTCGGAGTCACCTAGTGCAG | 8380 fluorescence intensity (a.u.) |
| CACATGGAGAAGAATTTTCTTTTGCTTTACCAAATCGCCTCGGAGTCACCTAGTGCAG | 8270 fluorescence intensity (a.u.) |
| TGACACCGTTGACTTTTTTGTCTAAAGTTTAACCATTCGTCGGAGTCACCTAGTGCAG | 32400 fluorescence intensity (a.u.) |
| AATAGATGACGCCGTTGATTTTTTCTCACATGTTTGACCACGGAGTCACCTAGTGCAG | 11700 fluorescence intensity (a.u.) |
| CTAATACATTGCCTCGTTTTTCTCTATAGACTATCTCCAGCGGAGTCACCTAGTGCAG | 8460 fluorescence intensity (a.u.) |
| TGAATGCAAGCTTTCTTTTTCATCATGCAGCATTTGCAGTCGGAGTCACCTAGTGCAG | 8330 fluorescence intensity (a.u.) |
| GAACCTGTATAAAAATCATCGTCTCCATCTCTTTTACCTCCGGAGTCACCTAGTGCAG | 8260 fluorescence intensity (a.u.) |
| TTTCCATCTTCTGTATACTCCTCCTGTTTCGCTGTAAATTCGGAGTCACCTAGTGCAG | 10700 fluorescence intensity (a.u.) |
| TGTGTTTTGGATGGATAATATTTACACTTGACGCCAACATCGGAGTCACCTAGTGCAG | 8160 fluorescence intensity (a.u.) |
| TCTCCCTGCCACCGACGTCACCGCCCGCCATCGACGCCTCCGGAGTCACCTAGTGCAG | 9850 fluorescence intensity (a.u.) |

2 entries picked at random from the list so far, as already listed:

| Sequence | binding signal |
| --- | --- |
| CTAATACATTGCCTCGTTTTTCTCTATAGACTATCTCCAGCGGAGTCACCTAGTGCAG | 8460 fluorescence intensity (a.u.) |
| TTACCTACGTGGAGCATCATTTTTAACCGAGGCAAATTTTCGGAGTCACCTAGTGCAG | 10300 fluorescence intensity (a.u.) |
